Test results taken from PMC6700787, “Sharpin suppresses β1-integrin activation by complexing with the β1 tail and kindlin-1” (Cell Communication and Signaling : CCS, 2019).
These are yes or no findings as the source states them, for the method shown. Binding calls can cover weak binding; strength is not graded here. Sequences can lack the tags named with a protein. Values belong to the molecule of their own block, whether it stands above or below them.

Amino acid sequences for entries named in this document (tags omitted). A change or cut given only in a name is not applied to a line headed by its entry.
UniProt Q9BQL6: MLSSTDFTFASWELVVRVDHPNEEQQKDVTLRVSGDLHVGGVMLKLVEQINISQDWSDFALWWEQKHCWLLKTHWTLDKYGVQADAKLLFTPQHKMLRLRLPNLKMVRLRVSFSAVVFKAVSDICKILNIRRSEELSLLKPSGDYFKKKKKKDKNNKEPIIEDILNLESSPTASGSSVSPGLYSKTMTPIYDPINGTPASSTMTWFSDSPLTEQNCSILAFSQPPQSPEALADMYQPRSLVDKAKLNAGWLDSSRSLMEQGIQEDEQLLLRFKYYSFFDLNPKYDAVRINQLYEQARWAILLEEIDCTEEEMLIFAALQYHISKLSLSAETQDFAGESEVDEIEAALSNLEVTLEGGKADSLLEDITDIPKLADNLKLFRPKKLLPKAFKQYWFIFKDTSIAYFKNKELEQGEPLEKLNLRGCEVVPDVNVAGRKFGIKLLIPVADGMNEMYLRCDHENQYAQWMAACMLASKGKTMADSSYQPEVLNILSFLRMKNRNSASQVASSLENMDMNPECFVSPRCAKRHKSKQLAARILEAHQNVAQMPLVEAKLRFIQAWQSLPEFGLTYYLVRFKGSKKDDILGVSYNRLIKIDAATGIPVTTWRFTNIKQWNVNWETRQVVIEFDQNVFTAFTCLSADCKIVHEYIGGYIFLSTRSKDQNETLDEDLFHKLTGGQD

Key:
[1] = molecular target: T1, GST-fused sharpin (UniProt Q9H0F6); test: pull-down; GST-SH on Glutathione Sepharose beads, incubated with his-tagged kindlins or kindlin-1 mutants; immunoblotting (Fig. 3b, 3e); both purified
T1 sequence: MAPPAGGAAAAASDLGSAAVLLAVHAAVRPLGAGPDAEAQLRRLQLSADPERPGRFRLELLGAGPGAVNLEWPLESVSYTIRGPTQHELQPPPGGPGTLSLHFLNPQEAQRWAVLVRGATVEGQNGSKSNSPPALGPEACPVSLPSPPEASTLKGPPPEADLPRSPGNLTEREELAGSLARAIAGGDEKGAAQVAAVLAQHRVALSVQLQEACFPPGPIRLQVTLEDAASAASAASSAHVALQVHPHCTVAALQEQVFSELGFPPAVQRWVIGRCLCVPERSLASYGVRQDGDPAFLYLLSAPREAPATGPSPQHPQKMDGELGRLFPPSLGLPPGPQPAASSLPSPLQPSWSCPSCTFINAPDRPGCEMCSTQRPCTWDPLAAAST

[2] = molecular target: kindlin-1 missing the F1 subdomain, fused with the DNA-binding domain of GAL4 (pGBKT7); test: two-hybrid; Matchmaker Gold yeast two-hybrid; AD-sharpin (pGADT7) with BD-kindlin (pGBKT7); growth on SD-4 selection media, serial dilution (Fig. 3a, 3f)
[3] = molecular target: kindlin-1 QW/AA mutant, fused with the DNA-binding domain of GAL4 (pGBKT7) (UniProt Q9BQL6); test: as above

binding [1]: binds
Molecule: kindlin-1 missing the F1 subdomain, his-tagged (domain or fragment)

binding [1]: binds
Molecule: N-terminal fragment (F0 + F1) of kindlin-1, his-tagged (domain or fragment)

The remaining lines, values behind:

Molecule: kindlin-1 with a deletion of the F0 subdomain, his-tagged (domain or fragment)
binding [1]: no binding

B1: AD-sharpin (sharpin fused with the activation domain of GAL4, pGADT7) (protein, UniProt Q9H0F6 1-387)
chain: MAPPAGGAAAAASDLGSAAVLLAVHAAVRPLGAGPDAEAQLRRLQLSADPERPGRFRLELLGAGPGAVNLEWPLESVSYTIRGPTQHELQPPPGGPGTLSLHFLNPQEAQRWAVLVRGATVEGQNGSKSNSPPALGPEACPVSLPSPPEASTLKGPPPEADLPRSPGNLTEREELAGSLARAIAGGDEKGAAQVAAVLAQHRVALSVQLQEACFPPGPIRLQVTLEDAASAASAASSAHVALQVHPHCTVAALQEQVFSELGFPPAVQRWVIGRCLCVPERSLASYGVRQDGDPAFLYLLSAPREAPATGPSPQHPQKMDGELGRLFPPSLGLPPGPQPAASSLPSPLQPSWSCPSCTFINAPDRPGCEMCSTQRPCTWDPLAAAST
binding [2]: binds | binding [3]: binds
